Experimental data published in the supplement of paper PMC10849652.
The list shows a part of the results.

Amino acid sequences for entries named in this document (tags omitted). A change or cut given only in a name is not applied to a line headed by its entry.
UniProt Q6IA86: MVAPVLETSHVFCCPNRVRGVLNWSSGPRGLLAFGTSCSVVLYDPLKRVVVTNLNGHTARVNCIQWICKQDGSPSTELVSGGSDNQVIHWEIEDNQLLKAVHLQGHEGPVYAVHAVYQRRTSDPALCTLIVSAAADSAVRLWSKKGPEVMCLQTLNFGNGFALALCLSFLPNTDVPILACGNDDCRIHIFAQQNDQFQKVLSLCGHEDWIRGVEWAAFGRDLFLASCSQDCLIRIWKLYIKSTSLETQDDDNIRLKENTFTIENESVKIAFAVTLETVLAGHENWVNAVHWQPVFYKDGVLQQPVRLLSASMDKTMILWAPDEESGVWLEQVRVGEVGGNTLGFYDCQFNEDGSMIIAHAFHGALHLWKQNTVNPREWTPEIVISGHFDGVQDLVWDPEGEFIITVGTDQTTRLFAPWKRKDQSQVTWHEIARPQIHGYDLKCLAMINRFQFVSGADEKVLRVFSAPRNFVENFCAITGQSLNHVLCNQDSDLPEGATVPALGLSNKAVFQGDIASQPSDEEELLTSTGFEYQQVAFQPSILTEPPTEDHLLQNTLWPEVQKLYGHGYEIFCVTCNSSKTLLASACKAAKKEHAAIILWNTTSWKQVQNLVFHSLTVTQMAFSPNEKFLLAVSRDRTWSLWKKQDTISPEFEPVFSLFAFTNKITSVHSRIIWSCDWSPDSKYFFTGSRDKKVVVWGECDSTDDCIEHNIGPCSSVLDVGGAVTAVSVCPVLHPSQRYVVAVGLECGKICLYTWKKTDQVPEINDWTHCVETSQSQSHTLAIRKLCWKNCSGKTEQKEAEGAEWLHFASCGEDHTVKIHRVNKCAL
UniProt Q14249: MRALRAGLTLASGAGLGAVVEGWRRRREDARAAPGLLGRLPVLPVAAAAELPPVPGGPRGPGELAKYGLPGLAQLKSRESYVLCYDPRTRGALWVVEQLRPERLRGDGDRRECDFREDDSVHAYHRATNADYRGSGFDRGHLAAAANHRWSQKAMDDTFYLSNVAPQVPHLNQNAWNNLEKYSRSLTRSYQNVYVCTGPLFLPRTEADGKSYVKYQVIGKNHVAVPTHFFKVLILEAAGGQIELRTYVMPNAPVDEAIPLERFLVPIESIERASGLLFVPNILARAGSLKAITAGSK
UniProt Q9BV81: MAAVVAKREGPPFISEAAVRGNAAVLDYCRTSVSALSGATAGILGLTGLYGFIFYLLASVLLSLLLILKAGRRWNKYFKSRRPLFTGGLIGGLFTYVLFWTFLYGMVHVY
UniProt Q9HCM4: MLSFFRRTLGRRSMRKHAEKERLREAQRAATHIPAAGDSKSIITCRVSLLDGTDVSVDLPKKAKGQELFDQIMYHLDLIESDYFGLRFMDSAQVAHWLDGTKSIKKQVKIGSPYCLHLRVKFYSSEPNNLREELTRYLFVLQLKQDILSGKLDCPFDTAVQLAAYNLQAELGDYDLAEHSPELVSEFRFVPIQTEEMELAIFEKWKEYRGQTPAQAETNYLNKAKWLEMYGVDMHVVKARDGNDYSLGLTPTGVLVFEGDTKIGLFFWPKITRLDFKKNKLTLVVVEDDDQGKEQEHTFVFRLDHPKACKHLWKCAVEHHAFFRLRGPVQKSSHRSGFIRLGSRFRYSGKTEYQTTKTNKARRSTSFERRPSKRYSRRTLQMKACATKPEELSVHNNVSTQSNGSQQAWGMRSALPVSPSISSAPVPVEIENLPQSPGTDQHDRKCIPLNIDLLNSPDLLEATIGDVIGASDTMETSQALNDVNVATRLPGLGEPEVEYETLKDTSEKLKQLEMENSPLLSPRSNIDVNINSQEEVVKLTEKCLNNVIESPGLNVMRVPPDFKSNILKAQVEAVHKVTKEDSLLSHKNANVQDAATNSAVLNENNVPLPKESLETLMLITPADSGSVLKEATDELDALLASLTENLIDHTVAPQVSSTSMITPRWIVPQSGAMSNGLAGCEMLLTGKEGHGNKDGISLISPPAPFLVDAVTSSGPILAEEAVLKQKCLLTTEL
UniProt Q52LR7, whole entry, looked up: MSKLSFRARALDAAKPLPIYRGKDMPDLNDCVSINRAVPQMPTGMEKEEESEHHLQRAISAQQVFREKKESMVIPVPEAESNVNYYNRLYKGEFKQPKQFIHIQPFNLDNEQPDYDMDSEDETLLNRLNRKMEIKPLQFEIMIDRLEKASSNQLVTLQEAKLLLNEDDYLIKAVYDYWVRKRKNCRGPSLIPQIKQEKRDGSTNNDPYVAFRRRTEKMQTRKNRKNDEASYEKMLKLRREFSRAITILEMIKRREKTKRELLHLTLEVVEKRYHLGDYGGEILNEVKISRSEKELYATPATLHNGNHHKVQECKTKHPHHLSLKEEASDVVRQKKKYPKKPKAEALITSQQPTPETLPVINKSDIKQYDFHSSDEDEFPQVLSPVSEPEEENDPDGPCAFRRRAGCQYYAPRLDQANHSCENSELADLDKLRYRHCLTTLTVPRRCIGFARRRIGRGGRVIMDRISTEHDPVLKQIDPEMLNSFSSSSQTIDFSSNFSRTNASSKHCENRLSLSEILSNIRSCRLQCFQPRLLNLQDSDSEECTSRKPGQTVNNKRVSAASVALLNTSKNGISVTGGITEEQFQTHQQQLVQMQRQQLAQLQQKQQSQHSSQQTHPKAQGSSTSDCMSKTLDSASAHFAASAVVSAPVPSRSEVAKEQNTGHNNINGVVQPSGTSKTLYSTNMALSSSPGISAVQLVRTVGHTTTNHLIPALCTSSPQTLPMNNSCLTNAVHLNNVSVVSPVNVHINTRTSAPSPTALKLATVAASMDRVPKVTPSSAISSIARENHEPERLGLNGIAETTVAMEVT

What was measured:
Test in all cases: log2 fold change, soluble protein after heating vs DMSO (PISA); higher = thermal stabilisation; K562 lysate, 10 uM; active = over 0.2 and 3.5 SD of the protein, either way, in both replicates (recomputed)
lapatinib = compound: CS(=O)(=O)CCNCc1ccc(-c2ccc3ncnc(Nc4ccc(OCc5cccc(F)c5)c(Cl)c4)c3c2)o1 [lapatinib]
Procedure, shortened: (§1)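 Log-two fold change in thermal stability relative to solvent controls is reported from duplicates. For each sample, crude K562 extract from dounce-homogenised pellets in PBS pH 7.4 with 1 mM MgCl2, at 1 mg/mL protein, was treated with 10 μM compound for 30 min. Aliquots heated for 3 min across 48°C-58°C were pooled, brought to 0.5% NP-40 at 4°C and cleared at 21,000xg for 90 min. The supernatant was quantified by TMTpro 16plex LC-MS/MS with channel sums equalised.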

pictilisib = compound: CS(=O)(=O)N1CCN(Cc2cc3nc(-c4cccc5[nH]ncc45)nc(N4CCOCC4)c3s2)CC1 [pictilisib]
Procedure, shortened: as §1

crizotinib = compound: C[C@@H](Oc1cc(-c2cnn(C3CCNCC3)c2)cnc1N)c1c(Cl)ccc(F)c1Cl [crizotinib]
Procedure, shortened: as §1

[1] = compound: C[C@H](C1=CC=C(C=C1)C(=O)NC2=C3C=CNC3=NC=C2)N
Procedure, shortened: as §1

duvelisib = compound: C[C@H](Nc1ncnc2nc[nH]c12)c1cc2cccc(Cl)c2c(=O)n1-c1ccccc1 [duvelisib]
Procedure, shortened: as §1

gandotinib = compound: Cc1cc(Nc2cc(CN3CCOCC3)c3nc(C)c(Cc4ccc(Cl)cc4F)n3n2)n[nH]1 [gandotinib]
Procedure, shortened: as §1

tozasertib = compound: Cc1cc(Nc2cc(N3CCN(C)CC3)nc(Sc3ccc(NC(=O)C4CC4)cc3)n2)n[nH]1 [tozasertib]
Procedure, shortened: as §1

doramapimod = compound: Cc1ccc(-n2nc(C(C)(C)C)cc2NC(=O)Nc2ccc(OCCN3CCOCC3)c3ccccc23)cc1 [doramapimod]
Procedure, shortened: as §1

bafetinib = compound: Cc1ccc(NC(=O)c2ccc(CN3CC[C@H](N(C)C)C3)c(C(F)(F)F)c2)cc1Nc1nccc(-c2cncnc2)n1 [bafetinib]
Procedure, shortened: as §1

[2] = compound: Cc1cccc(CC(=O)N2CCc3c2ccc(-c2cn(C)c4ncnc(N)c24)c3F)n1
Procedure, shortened: as §1

nilotinib = compound: Cc1cn(-c2cc(NC(=O)c3ccc(C)c(Nc4nccc(-c5cccnc5)n4)c3)cc(C(F)(F)F)c2)cn1 [nilotinib]
Procedure, shortened: as §1

[3] = compound: Cc1nc(Nc2n[nH]c3c2CN(C(=O)N[C@H](CN(C)C)c2ccccc2)C3(C)C)c2sccc2n1
Procedure, shortened: as §1

dasatinib = compound: Cc1nc(Nc2ncc(C(=O)Nc3c(C)cccc3Cl)s2)cc(N2CCN(CCO)CC2)n1 [dasatinib]
Procedure, shortened: as §1

[4] = compound: Cc1ncc(-c2ccnc(Nc3ccc(S(C)(=O)=O)cc3)n2)n1C(C)C
Procedure, shortened: as §1

[5] = compound: Cn1cc(-c2ccc3c(c2)CCN3C(=O)Cc2cccc(C(F)(F)F)c2)c2c(N)ncnc21
Procedure, shortened: as §1

quisinostat = compound: Cn1cc(CNCC2CCN(c3ncc(C(=O)NO)cn3)CC2)c2ccccc21 [quisinostat]
Procedure, shortened: as §1

tipifarnib = compound: Cn1cncc1[C@@](N)(c1ccc(Cl)cc1)c1ccc2c(c1)c(-c1cccc(Cl)c1)cc(=O)n2C [tipifarnib]
Procedure, shortened: as §1

[6] = compound: NC(=O)Nc1cc(-c2cccc(F)c2)sc1C(=O)N[C@H]1CCCNC1
Procedure, shortened: as §1

[7] = compound: NC(=O)c1cnc(N[C@@H]2CCCC[C@@H]2N)nc1Nc1cccc(-n2nccn2)c1
Procedure, shortened: as §1

[8] = compound: NC1(c2ccc(-c3nc4ccn5c(=O)[nH]nc5c4cc3-c3ccccc3)cc2)CCC1
Procedure, shortened: as §1

Measured: log2 fold change

ELP2 isoform 6 (UniProt Q6IA86)
inactive: lapatinib -0.042 | pictilisib -0.009 | crizotinib 0 | [1] -0.074 | duvelisib 0 | gandotinib 0.004 | tozasertib 0.015 | doramapimod 0.032 | bafetinib -0.007 | [2] 0.019 | nilotinib -0.005 | [3] 0.011 | dasatinib -0.026 | [4] -0.014 | [5] 0.017 | quisinostat -0.032 | tipifarnib -0.017 | [6] 0.001 | [7] -0.007 | [8] -0.015

ENDOG (UniProt Q14249)
inactive: lapatinib 0.016 | pictilisib -0.021 | crizotinib -0.036 | [1] 0.036 | duvelisib 0 | gandotinib -0.044 | tozasertib 0.005 | doramapimod -0.018 | bafetinib 0.015 | [2] 0.003 | nilotinib -0.024 | [3] -0.043 | dasatinib 0.007 | [4] -0.084 | [5] 0.006 | quisinostat 0.005 | tipifarnib -0.066 | [6] 0.026 | [7] 0.024 | [8] 0.006

EMC6 (UniProt Q9BV81)
inactive: lapatinib 0.052 | pictilisib 0.022 | crizotinib -0.049 | [1] -0.014 | duvelisib 0 | gandotinib -0.037 | tozasertib 0.034 | doramapimod -0.098 | bafetinib -0.03 | [2] 0.054 | nilotinib 0.233 | [3] -0.02 | dasatinib 0.003 | [4] -0.162 | [5] -0.033 | quisinostat 0.038 | tipifarnib -0.31 | [6] -0.076 | [7] 0.031 | [8] -0.082

EIF3B (UniProt C9JQN7)
inactive: lapatinib -0.064 | pictilisib -0.086 | crizotinib -0.073 | [1] -0.015 | gandotinib 0.159 | doramapimod -0.037 | bafetinib 0.002 | [2] 0.149 | nilotinib 0.006 | [3] -0.059 | [4] 0.086 | quisinostat -0.098 | tipifarnib 0.015 | [6] -0.053 | [7] -0.021 | [8] 0

EPB41L5 (UniProt Q9HCM4)
inactive: lapatinib 0.069 | pictilisib -0.033 | crizotinib -0.079 | [1] -0.129 | gandotinib -0.027 | tozasertib 0.014 | doramapimod 0.155 | bafetinib -0.153 | [2] 0.09 | quisinostat -0.062 | [6] 0.012 | [7] -0.126 | [8] 0.035

EPC2 (UniProt Q52LR7)
inactive: lapatinib 0.091 | pictilisib -0.066 | crizotinib 0.061 | duvelisib -0.077 | tozasertib 0.062 | doramapimod -0.047 | bafetinib 0.246 | dasatinib -0.039 | [5] 0.031 | quisinostat 0.093 | [6] 0.011 | [7] -0.186
